Laboratory results reported in paper PMC7869505.

Protein sequences, listed by entry. Tags and fused reporters are not part of them. Lines headed by an entry give the natural chain unless they say otherwise; changes in a name come on top.
UniProt A0A894JZQ6: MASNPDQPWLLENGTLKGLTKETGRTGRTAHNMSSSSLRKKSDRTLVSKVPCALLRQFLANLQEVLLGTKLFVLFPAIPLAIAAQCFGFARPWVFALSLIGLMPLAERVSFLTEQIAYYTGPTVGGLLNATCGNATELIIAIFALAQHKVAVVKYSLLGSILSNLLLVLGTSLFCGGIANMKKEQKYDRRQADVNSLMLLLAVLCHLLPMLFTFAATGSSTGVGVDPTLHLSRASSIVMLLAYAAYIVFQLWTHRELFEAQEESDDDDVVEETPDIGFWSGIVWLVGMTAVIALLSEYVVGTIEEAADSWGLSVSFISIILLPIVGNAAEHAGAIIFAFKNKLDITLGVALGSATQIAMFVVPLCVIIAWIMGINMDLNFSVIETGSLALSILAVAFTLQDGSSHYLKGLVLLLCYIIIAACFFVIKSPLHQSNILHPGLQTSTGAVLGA

Molecular target: MdCAX3L-2 (apple (Malus domestica))
Test: two-hybrid; yeast two-hybrid membrane protein system (MoBiTec); bait vector pBT3-N, prey vector pPR3-N, yeast strain NMY51; selection on SD -Leu/-Trp/-His/-Ade with 2.5 mM 3-AT, with or without X-alpha-gal (20 ug/ml)

binding: binds
Substance: MdCAX3L-1 (from UniProt A0A894JZQ6)

These are yes or no findings as the source states them, for the method shown. Binding can be weak; no strength is given.
